Experimental data from US20260157964A1, “LIPOPHILIC STATIN COMPOSITION WITH IMPROVED SOLUBILITY AND PERMEABILITY AND USES THEREOF” (KOREA INSTITUTE OF SCIENCE AND TECHNOLOGY, priority 2021, published 2026).
At least one structure is not confirmed: it was looked up by name or label, or the drawing left a doubt. Some of these results come from one statement about several compounds together.

Key:
CT26 cells = assay: In vitro cytotoxicity in CT26 cells (CCK-8); format: cell-based, mouse; conditions: carrier amount matching SIMVA concentration range 1 μg/mL to 150 μg/mL
Method: Specifically, 5×10^3 CT26 cells were inoculated on 100 μL of DMEM and a Roswell Park Memorial Institute (RPMI) medium, respectively supplemented with 10% (v/v) FBS and 1% penicillin/streptomycin. […] DL and CD were also treated in the same volume and each of the concentrations. After 24 hours of the culturing, 10 μL of a WST-8 solution [2-2-methoxy-4-nitrophenyl)-3-(4-nitrophenyl)-5-(2,4-disulfophenyl)-2H-tetrazolium monosodium salt] was diluted with 100 μL of each medium, followed by culturing for 2 hours. Then, absorbance was measured using a microplate reader (PerkinElmer multimode plate reader) at 450 nm. Percentages of viable cells are shown by comparing the number of treated cells with that of untreated cells.

CT26 tumor = assay: Antitumor effect of SIMVA formulations in CT26 tumor-bearing mice; conditions: oral once-a-day, 20 mg/kg SIMVA, 18 days

Compound	Cell viability (CT26 cells)	Anticancer effects (CT26 tumor; listed as SIMVA in water)	Anticancer effects (CT26 tumor; listed as SIMVA in water (20))
COC(=O)[C@H](CCCCN)NC(=O)CC[C@@H](C)[C@H]1CC[C@H]2[C@@H]3CC[C@@H]4C[C@H](O)CC[C@]4(C)[C@H]3C[C@H](O)[C@]12C [DL, N^α-deoxycholyl-I-lysyl-methylester]	≥ 80%		
CCC(C)(C)C(=O)O[C@H]1C[C@@H](C)C=C2C=C[C@H](C)[C@H](CC[C@@H]3C[C@@H](O)CC(=O)O3)[C@H]21 [SIMVA, simvastatin]		no anticancer effects	did not exhibit anticancer effects
